Counter-ions that a name gives are not always drawn. The list shows a part of the results. Single values are uncertain here, since repeats match poorly.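 In a drug-repurposing library screen, luminescence reads luciferase driven by eight TEAD-binding elements, stably integrated into human kidney-derived cells. Compounds scoring over five robust Z scores above the plate mean are called hits.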
Test system: HEK293A TEAD-LUC reporter
Assay: TEAD-luciferase reporter activity (YAP activation), robust Z score vs plate; higher = stronger YAP/TEAD activation
Conditions: 24 h

| SMILES | TEAD-luciferase reporter activity (compound concentration: 200 nM) | TEAD-luciferase reporter activity (compound concentration: 2 uM) | TEAD-luciferase reporter activity (compound concentration: 10 uM) |
| --- | --- | --- | --- |
| CC(=O)c1ccc(C#C[C@@]2(O)CC[C@@]3(C)[C@@H](CC[C@@H]4[C@@H]3CC[C@]3(C)[C@@H](C(C)=O)CC[C@@H]43)C2)cc1 | inactive: -0.279 | inactive: -1.1 | inactive: 3.7 |
| C[N+]1(C)C2CCC1CC(OC(=O)C(O)c1ccccc1)C2 (configuration not stated) | inactive: -0.846 | inactive: -0.136 | inactive: -0.68 |
| O=c1[nH]c(=O)n([C@@H]2O[C@H](CO)[C@@H](O)[C@H]2O)cc1/C=C/Br | inactive: -1.22 | inactive: -0.326 | inactive: -1.07 |
| CC(=O)NNC(=O)N1Cc2ccccc2Oc2ccc(Cl)cc21 | inactive: -0.688 | inactive: 0.473 | inactive: -0.863 |
| CCOC(=O)CCC(=O)O[C@H]1[C@H](O[C@@H]2[C@@H](C)[C@H](O[C@H]3C[C@@](C)(OC)[C@@H](O)[C@H](C)O3)[C@@H](C)C(=O)O[C@H](CC)[C@@](C)(O)[C@H](O)[C@@H](C)C(=O)[C@@](C)(F)C[C@@]2(C)O)O[C@H](C)C[C@@H]1N(C)C | inactive: -0.612 | inactive: -0.819 | inactive: 1.44 |
| CC(=O)Oc1ccccc1C(=O)Nc1ncc([N+](=O)[O-])s1 | inactive: 1.32 | inactive: 3.13 | active: 5.01 |
| Cc1ccccc1NC(=O)Nc1ccc(CC(=O)N[C@@H](CC(C)C)C(=O)N[C@@H](CC(=O)O)C(=O)N[C@H](C(=O)O)C(C)C)cc1 | inactive: -0.825 | inactive: -0.711 | inactive: 0.938 |
| C[C@H]1C[C@H]2[C@@H]3C[C@H](F)C4=CC(=O)C=C[C@]4(C)[C@@]3(F)[C@@H](O)C[C@]2(C)[C@@]1(O)C(=O)CO [Diflorasone] | inactive: 0.529 | inactive: 0.735 | inactive: -0.000744 |
| CC(=O)OC1CC2(C)C(CC(O)C3C4(C)CCC(O)C(C)C4CCC32C)/C1=C(/CCC=C(C)C)C(=O)O (configuration not stated) [fusidic acid, Cempra] | active: 5.61 | – | inactive: -0.221 |
| CC(=O)OC1CC2(C)C(CC(O)C3C4(C)CCC(O)C(C)C4CCC32C)/C1=C(/CCC=C(C)C)C(=O)O (configuration not stated) [fusidic acid] | – | inactive: -1.06 | – |
| O=C1OC(OC(=O)c2cccnc2Nc2cccc(C(F)(F)F)c2)c2ccccc21 (configuration not stated) [talniflumate] | inactive: -0.927 | inactive: -0.733 | inactive: -0.956 |
| CCN(CC)CCOc1c(Br)cccc1CO | inactive: 1.92 | inactive: 0.862 | inactive: -0.218 |
| NC(=O)CCC/N=C(\c1ccc(Cl)cc1)c1cc(F)ccc1O [progabide] | inactive: -2.41 | inactive: -0.357 | inactive: 2.23 |
| COC(=O)COc1ccc(S(=O)(=O)NCCc2ccccc2)cc1 | inactive: 2.03 | inactive: -0.716 | inactive: 1.38 |
| NS(=O)(=O)Nc1ncnc(OCCOc2ncc(Br)cn2)c1-c1ccc(Br)cc1 | inactive: -0.839 | inactive: -1.3 | inactive: 0.855 |
| N#CC(c1ccc(Cl)cc1)c1ccc(-n2ncc(=O)[nH]c2=O)cc1Cl (configuration not stated) [clazuril] | inactive: -1.88 | inactive: 0.0436 | inactive: 0.72 |
| CC(C(=O)O)c1cccc(Oc2ccccc2)c1 (configuration not stated) [Fenoprofen calcium] | inactive: -1.48 | inactive: -0.0851 | inactive: 0.965 |

Quoted at random: 2 entries already listed, in no set order.

| SMILES | TEAD-luciferase reporter activity (compound concentration: 200 nM) | TEAD-luciferase reporter activity (compound concentration: 2 uM) | TEAD-luciferase reporter activity (compound concentration: 10 uM) |
| --- | --- | --- | --- |
| O=c1[nH]c(=O)n([C@@H]2O[C@H](CO)[C@@H](O)[C@H]2O)cc1/C=C/Br | inactive: -1.22 | inactive: -0.326 | inactive: -1.07 |
| CC(=O)OC1CC2(C)C(CC(O)C3C4(C)CCC(O)C(C)C4CCC32C)/C1=C(/CCC=C(C)C)C(=O)O (configuration not stated) [fusidic acid] | – | inactive: -1.06 | – |

The list continues:

| SMILES | TEAD-luciferase reporter activity (compound concentration: 200 nM) | TEAD-luciferase reporter activity (compound concentration: 2 uM) | TEAD-luciferase reporter activity (compound concentration: 10 uM) |
| --- | --- | --- | --- |
| OCC1C[O][Zn][O]1 (configuration not stated) [zinc glycerolate] | inactive: -0.0653 | inactive: -1.12 | inactive: -1.16 |
| C[C@H](CS)C(=O)N1C[C@@H](Sc2ccccc2)C[C@H]1C(=O)O [Zofenoprilat] | inactive: -0.363 | inactive: -0.273 | inactive: -0.995 |
| CCC(=O)N1Cc2ccccc2CC2(CCCN2Cc2ccc(OC)cc2)C1 (configuration not stated) | active: 5.19 | – | inactive: 1.49 |
| O=C(O)CN1CCN(CC(=O)O)CCN(CC(=O)O)CCN(CC(=O)O)CC1 [Gadoteric acid] | inactive: 1.24 | inactive: 0.215 | inactive: 0.809 |
| C[C@]1(CO)C2CC[C@@]3(CO3)[C@@H](C/C=C3/C(=O)OC[C@H]3OC(=O)/C=C/c3ccccc3)[C@]2(C)CC[C@H]1O (some centres not stated) | inactive: -0.514 | inactive: -0.242 | inactive: 0.0649 |
| CNCc1ccc(OC)c([C@@]2(N3CCC[C@H]3c3ncco3)C(=O)N(S(=O)(=O)c3ccc(OC)cc3)c3ccc(Cl)cc32)c1 | inactive: -0.16 | inactive: 1.08 | inactive: -1.78 |
| O=C(Nc1ccc(Cl)c(S(=O)(=O)N2CCNCC2)c1O)Nc1cccc(F)c1Cl [Elubrixin tosylate] | inactive: -0.709 | inactive: -0.321 | inactive: 4.94 |
| CC(=O)Nc1nnc(S(N)(=O)=O)s1 [Acetazolamide] | – | inactive: -1.73 | – |
| CC(=O)Nc1nnc(S(N)(=O)=O)s1 | inactive: -0.522 | – | inactive: -0.928 |
| Cc1cc(NS(=O)(=O)c2ccc(/N=C/c3ccccc3O)cc2)no1 | inactive: -0.842 | inactive: 0.972 | inactive: 1.38 |
| C[C@@H](Cc1ccc(-c2ncc(NC(=O)C(F)(F)F)o2)cc1)N1CC(c2cccc(Cl)c2)OC1=O (some centres not stated) | inactive: -1.4 | inactive: -0.069 | inactive: 2.26 |
| CCC1(c2c[nH]cn2)Cc2ccc(F)cc2C1 (configuration not stated) | inactive: 0.392 | inactive: -0.733 | inactive: -0.635 |
| CC(C)[C@@H]1CC[C@H](C)C[C@H]1OCC(=O)Nc1cc(Oc2ccc(C(=O)O)cc2)ccc1[N+](=O)[O-] | inactive: -0.369 | inactive: -0.79 | inactive: 1.72 |
| CC1NCCC1c1cnc[nH]1 (configuration not stated) | inactive: -0.0812 | inactive: -1.54 | inactive: 1.68 |
| CC(C)(C)/[N+]([O-])=C/c1ccc(S(=O)(=O)[O-])cc1S(=O)(=O)[O-] [Disufenton sodium] | inactive: -1.33 | inactive: -0.597 | inactive: 2.58 |
| C[C@@H]1C[C@H]2[C@@H]3CCC4=CC(=O)C=C[C@]4(C)[C@@]3(F)[C@@H](O)C[C@]2(C)[C@@]1(O)C(=O)COP(=O)([O-])[O-] [Dexamethasone sodium phosphate] | inactive: 0.71 | inactive: 1.27 | inactive: 1.32 |

Reference: the supplement of paper PMC10735217
